# Source: the supplement of paper PMC8728848
# The other results are listed elsewhere or left out.
# B1: Clone646PsrP (Streptococcus pneumoniae) (protein)
# chain: MDHHHHHHHHASENLYFQGAPAINASLNIAKSETKVYTGEGVDSVYRVPIYYKLKVTNDGSKLTFTYTVTYVNPKTNDLGNISSMRPGYSIYNSGTSTQTMLTLGSDLGKPSGVKNYITDKNGRQVLSYNTSTMTTQGSGYTWGNGAQMNGFFAKKGYGLTSSWTVPITGTDTSFTFTPYAARTDRIGINYFNGGGKVVESSTTSQSLSQSKSLSVSAS
# Legend:
# Assay in all cases: glycan array binding signal (z-score within array); higher = stronger binding
# Details in all cases: glycan notation: IUPAC condensed, linker removed
# [1] = target: GlcNAc(b1-4)GlcNAc(b1-4)GlcNAc(b1-4)GlcNAc(b1-4)GlcNAc(b1-4)GlcNAc
# Outline: (§1)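 The Consortium for Functional Glycomics database supplied 3228 glycan arrays, of which those lacking an available protein sequence were dropped. The binding signal, a within-array Z-score, was averaged across arrays of the same protein sequence and across linkers. Negative scores can be read as non-binding.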
# [2] = target: GlcNAc(b1-4)[GlcNAc(b1-6)]GalNAc
# Outline: as §1
# [3] = target: GlcNAc(b1-6)Gal(b1-4)GlcNAc
# Outline: as §1
# [4] = target: GlcNAc(b1-6)GalNAc
# Outline: as §1
# [5] = target: GlcNAc6S(b1-3)Gal(b1-4)GlcNAc
# Outline: as §1
# [6] = target: Kdn(a2-3)Gal(b1-3)GalNAc
# Outline: as §1
# [7] = target: Kdn(a2-3)Gal(b1-3)GlcNAc
# Outline: as §1
# [8] = target: Kdn(a2-3)Gal(b1-4)Glc
# Outline: as §1
# [9] = target: Kdn(a2-3)Gal(b1-4)GlcNAc
# Outline: as §1
# [10] = target: Kdn(a2-3)Gal(b1-4)[Fuc(a1-3)]GlcNAc
# Outline: as §1
# [11] = target: Kdn(a2-6)Gal(b1-4)GlcNAc
# Outline: as §1
# [12] = target: Man(a1-2)Man(a1-2)Man(a1-3)Man
# Outline: as §1
# [13] = target: Man(a1-2)Man(a1-2)Man(a1-6)[Man(a1-3)]Man
# Outline: as §1
# [14] = target: Man(a1-2)Man(a1-3)Man
# Outline: as §1
# [15] = target: Man(a1-2)Man(a1-3)[Man(a1-2)Man(a1-6)]Man
# Outline: as §1
# [16] = target: Man(a1-2)Man(a1-3)[Man(a1-2)Man(a1-6)]Man(a1-6)[Man(a1-2)Man(a1-2)Man(a1-3)]Man
# Outline: as §1
# [17] = target: Man(a1-2)Man(a1-3)[Man(a1-2)Man(a1-6)]Man(a1-6)[Man(a1-2)Man(a1-2)Man(a1-3)]Man(b1-4)GlcNAc(b1-4)GlcNAc
# Outline: as §1
# [18] = target: Man(a1-2)Man(a1-3)[Man(a1-6)]Man(a1-6)[Man(a1-2)Man(a1-3)]Man(b1-4)GlcNAc(b1-4)GlcNAc
# Outline: as §1
# [19] = target: Man(a1-2)Man(a1-6)[Man(a1-3)]Man(a1-6)[Man(a1-2)Man(a1-2)Man(a1-3)]Man
# Outline: as §1
# [20] = target: Man(a1-2)Man(a1-6)[Man(a1-3)]Man(a1-6)[Man(a1-2)Man(a1-2)Man(a1-3)]Man(b1-4)GlcNAc(b1-4)GlcNAc
# Outline: as §1
# [21] = target: Man(a1-3)[Man(a1-6)]Man
# Outline: as §1
# [22] = target: Man(a1-3)[Man(a1-6)]Man(a1-6)[Man(a1-2)Man(a1-3)]Man(b1-4)GlcNAc(b1-4)GlcNAc
# Outline: as §1
# [23] = target: Man(a1-3)[Man(a1-6)]Man(a1-6)[Man(a1-3)]Man
# Outline: as §1
# [24] = target: Man(a1-3)[Man(a1-6)]Man(a1-6)[Man(a1-3)]Man(b1-4)GlcNAc(b1-4)GlcNAc
# Outline: as §1
# [25] = target: Man(a1-3)[Man(a1-6)]Man(b1-4)GlcNAc(b1-4)GlcNAc
# Outline: as §1
# [26] = target: Man(a1-3)[Man(a1-6)]Man(b1-4)GlcNAc(b1-4)[Fuc(a1-6)]GlcNAc
# Outline: as §1
# [27] = target: Man(a1-6)Man
# Outline: as §1
# [28] = target: Man(b1-4)GlcNAc
# Outline: as §1
# [29] = target: MurNAc(b1-4)GlcNAc
# Outline: as §1
# [30] = target: Neu5Ac(a2-3)Gal
# Outline: as §1
# [31] = target: Neu5Ac(a2-3)Gal(b1-3)GalNAc
# Outline: as §1
# [32] = target: Neu5Ac(a2-3)Gal(b1-3)GalNAc(b1-3)Gal(a1-4)Gal(b1-4)Glc
# Outline: as §1
# [33] = target: Neu5Ac(a2-3)Gal(b1-3)GalNAc(b1-4)[Neu5Ac(a2-3)]Gal(b1-4)Glc
# Outline: as §1
# [34] = target: Neu5Ac(a2-3)Gal(b1-3)GalNAc(b1-4)[Neu5Ac(a2-8)Neu5Ac(a2-3)]Gal(b1-4)Glc
# Outline: as §1
# [35] = target: Neu5Ac(a2-3)Gal(b1-3)GalNAc6S
# Outline: as §1
# [36] = target: Neu5Ac(a2-3)Gal(b1-3)GlcNAc
# Outline: as §1
# [37] = target: Neu5Ac(a2-3)Gal(b1-3)GlcNAc(b1-2)Man
# Outline: as §1
# [38] = target: Neu5Ac(a2-3)Gal(b1-3)GlcNAc(b1-2)Man(a1-3)[GlcNAc(b1-4)][Neu5Ac(a2-3)Gal(b1-3)GlcNAc(b1-2)Man(a1-6)]Man(b1-4)GlcNAc(b1-4)GlcNAc
# Outline: as §1
# [39] = target: Neu5Ac(a2-3)Gal(b1-3)GlcNAc(b1-2)Man(a1-3)[Neu5Ac(a2-3)Gal(b1-3)GlcNAc(b1-2)Man(a1-6)]Man(b1-4)GlcNAc(b1-4)GlcNAc
# Outline: as §1
# [40] = target: Neu5Ac(a2-3)Gal(b1-3)GlcNAc(b1-3)Gal(b1-3)GlcNAc
# Outline: as §1
# [41] = target: Neu5Ac(a2-3)Gal(b1-3)GlcNAc(b1-3)Gal(b1-4)GlcNAc
# Outline: as §1
# [42] = target: Neu5Ac(a2-3)Gal(b1-3)GlcNAc(b1-3)GalNAc
# Outline: as §1
# [43] = target: Neu5Ac(a2-3)Gal(b1-3)GlcNAc(b1-4)Gal(b1-4)Glc
# Outline: as §1
# [44] = target: Neu5Ac(a2-3)Gal(b1-3)GlcNAc(b1-6)GalNAc
# Outline: as §1
# [45] = target: Neu5Ac(a2-3)Gal(b1-3)GlcNAc6S
# Outline: as §1
binder,measurement,setting,value
B1,glycan array binding signal (z-score),[1],0.043
same,glycan array binding signal (z-score),[2],-0.205
same,glycan array binding signal (z-score),[3],1.04
same,glycan array binding signal (z-score),[4],0.842
same,glycan array binding signal (z-score),[5],0.294
same,glycan array binding signal (z-score),[6],1.7
same,glycan array binding signal (z-score),[7],-0.826
same,glycan array binding signal (z-score),[8],0.154
same,glycan array binding signal (z-score),[9],0.815
same,glycan array binding signal (z-score),[10],0.135
same,glycan array binding signal (z-score),[11],0.94
same,glycan array binding signal (z-score),[12],-0.403
same,glycan array binding signal (z-score),[13],0.669
same,glycan array binding signal (z-score),[14],0.973
same,glycan array binding signal (z-score),[15],-1.02
same,glycan array binding signal (z-score),[16],-0.947
same,glycan array binding signal (z-score),[17],0.328
same,glycan array binding signal (z-score),[18],-0.756
same,glycan array binding signal (z-score),[19],-0.217
same,glycan array binding signal (z-score),[20],1.6
same,glycan array binding signal (z-score),[21],0.991
same,glycan array binding signal (z-score),[22],1.06
same,glycan array binding signal (z-score),[23],3.32
same,glycan array binding signal (z-score),[24],0.509
same,glycan array binding signal (z-score),[25],-0.444
same,glycan array binding signal (z-score),[26],-1.07
same,glycan array binding signal (z-score),[27],4.74
same,glycan array binding signal (z-score),[28],0.837
same,glycan array binding signal (z-score),[29],0.037
same,glycan array binding signal (z-score),[30],-0.198
same,glycan array binding signal (z-score),[31],-0.895
same,glycan array binding signal (z-score),[32],0.373
same,glycan array binding signal (z-score),[33],-0.543
same,glycan array binding signal (z-score),[34],-0.476
same,glycan array binding signal (z-score),[35],0.541
same,glycan array binding signal (z-score),[36],-0.345
same,glycan array binding signal (z-score),[37],2.02
same,glycan array binding signal (z-score),[38],-0.952
same,glycan array binding signal (z-score),[39],1.21
same,glycan array binding signal (z-score),[40],-0.996
same,glycan array binding signal (z-score),[41],-0.976
same,glycan array binding signal (z-score),[42],-0.325
same,glycan array binding signal (z-score),[43],0.297
same,glycan array binding signal (z-score),[44],-0.742
same,glycan array binding signal (z-score),[45],-0.267

# Exported as tab-separated lines: entries from further up.
binder	measurement	setting	value
B1	glycan array binding signal (z-score)	[35]	0.541
same	glycan array binding signal (z-score)	[39]	1.21
same	glycan array binding signal (z-score)	[45]	-0.267
